Laboratory results from the supplement of paper PMC3334620.
Over roughly 33,000 sequences, “E-score (-0.5 to 0.5)” has its median near -0.0059; the highest 2% begin near 0.26. Some of the results follow.

biological target: T1, Cin5 (UniProt P40917); assay: PBM E-score (8-mer binding enrichment) (E-score (-0.5 to 0.5)); higher = stronger / more preferred TF binding; settings: protein concentration: 100 nM; construct: GST-full length
T1 sequence: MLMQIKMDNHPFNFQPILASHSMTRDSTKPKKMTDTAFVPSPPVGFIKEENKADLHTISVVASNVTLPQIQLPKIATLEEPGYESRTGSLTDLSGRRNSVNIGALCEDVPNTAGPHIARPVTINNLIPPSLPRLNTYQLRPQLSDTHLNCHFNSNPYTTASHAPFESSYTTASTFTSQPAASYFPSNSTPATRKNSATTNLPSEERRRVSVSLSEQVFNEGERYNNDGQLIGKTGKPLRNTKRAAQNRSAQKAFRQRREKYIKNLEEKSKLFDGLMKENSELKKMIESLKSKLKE
In short: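 Universal all-10-mer Agilent arrays, double-stranded by primer extension on fresh or once-stripped slides, were probed with about 100-200 nM GST-tagged yeast transcription factors made by PURExpress. Fluorescent anti-GST detected bound protein, and masliner normalised the scans. E-scores from the Universal PBM Analysis Suite were given to each ungapped eight-base word pooled with its reverse complement.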

In order of falling “PBM E-score” value:
1. CATATTAC  0.287
2. AATTGCTG  0.251
3. AATTACTA  0.212
4. CCCGCGGA  0.208
5. ATACCAAC  0.205
6. AGACGAAC  0.179
7. AATGTCAA  0.176
8. GATGACGA  0.163
9. ACGGTAAC  0.163
10. AGGACACA  0.158
11. AATTGCTA  0.156
12. ATAGTCAC  0.129
13. AATGCTGG  0.126
14. AGACAACC  0.124
15. CATACGCG  0.12
16. CAGTTTTC  0.113
17. GCGGTCGA  0.1
18. GGAGACGA  0.0975
19. GTAAGTGA  0.0922
20. CCCATCGA  0.089
21. CATACTCC  0.0858
22. ATTCTGGG  0.0857
23. CGCATAAG  0.0839
24. ATCAGCTG  0.0759
25. CCTTACGC  0.0689
26. CTTGATCA  0.0602
27. ATCACACC  0.0416
28. CGATACCG  0.0398
29. ACGAATCT  0.0397
30. AGGAATAC  0.037
31. AAACCAAG  0.0342
32. ATACACAG  0.0336
33. GCCACAAA  0.0299
34. CATTCCAA  0.029
35. TATGCAGA  0.0287
36. ATCCGGGA  0.0228
37. GATCGTTA  0.0193
38. CGATATGA  0.0193
39. ACACGGCT  0.00928
40. ACATAAAG  0.00631
41. GCCATGAA  0.00141
42. TGGGGCAA  -0.00192
43. GGTCGGAA  -0.00206
44. AAGATACG  -0.00662
45. ATGAGTCG  -0.00791
46. AGGATATC  -0.0153
47. ACTTGCTA  -0.0171
48. TAACCCCA  -0.0196
49. CATGTGGA  -0.0286
50. AAGTAGGA  -0.0295
51. AGTTGCTG  -0.0388
52. CGGGTATC  -0.0389
53. CAGACCGA  -0.0441
54. CTCTACAC  -0.0485
55. ATGCACAG  -0.0493
56. AGTGTCCG  -0.0514
57. CCAATGAC  -0.0567
58. TTAGGAAA  -0.0577
59. ACCAGGTC  -0.0582
60. GTCAGACA  -0.0591
61. CATAAAGC  -0.0627
62. CTTCCGAA  -0.0661
63. CATTAAGA  -0.0721
64. CTAGAAGA  -0.0876
65. GCTGAAAC  -0.0892
66. CGATTCAA  -0.0893
67. AAGCTCCA  -0.0944
68. CGGCCACC  -0.0965
69. AAGGTCCC  -0.0985
70. AGGACGTA  -0.102
71. GCATCGAC  -0.107
72. CAGTCAAC  -0.109
73. ACAGGTTC  -0.125
74. CGCCAGAA  -0.135
75. AAAACAGG  -0.14
76. CACCAGAA  -0.141
77. AGCAGCCC  -0.142
78. GGGTTATA  -0.146
79. GGGCTCTA  -0.147
80. ACCAAGGC  -0.149
81. CGGCGCTA  -0.165
82. CCAGGCGA  -0.168
83. GACAGCTA  -0.178
84. ACGGGGCA  -0.178
85. AGCCTGAG  -0.216
86. GGGCTCAC  -0.217
87. GCTCTGAA  -0.223
88. AGACTCGC  -0.228
89. ATGCGGCC  -0.232
90. CTCCTCCC  -0.279
91. ACCGGCCC  -0.294
92. TCCTAAAA  -0.341
93. CCCTTGCA  -0.345
94. ACCCCCGT  -0.422
